# Measurements from PubChem BioAssay AID1347075 (National Center for Advancing Translational Sciences (NCATS), 2019).
# Where “and” joins values, the source holds several entries; their conditions need not be identical. Identical values can stand only once. The whole screen tested about 400,000 compounds, of which about 5,500 (1.4%) were called active. The shares of active, inactive and inconclusive entries below differ from those in the screen. Calls come from the whole dose curve; as a rule, active = well fitted cell-killing curve with a large enough effect; inconclusive = small, poorly fitted or top-dose-only effect, or effect the other way; inactive = flat fitted curve, though single readings scatter. Where the call is inconclusive, the potency comes from a doubtful curve fit.
# Assay: qHTS assay for MDR1-selective chemotherapeutics: Primary screen using the parental adenocarcinoma cell KB-3-1; note: nearly all actives have a fitted effect of over 60% in size
# Details: KB-3-1 viability, CellTiter-Glo ATP luminescence, 72 h; activity change, negative = cytotoxic: at 46.1 µM (top of the series)
# Method in brief: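 Parental KB-3-1 adenocarcinoma cells in phenol-red-free DMEM with 10% FBS were pin-treated with compounds at several concentrations, incubated 72 h at 37 °C, and viability read by CellTiter-Glo luminescence; concentration-effect curves were fitted after normalization.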
# % is set by controls: 0 for no effect and ±100 for the full control effect; potency is the fitted concentration of half-maximal effect.
Compound,"activity change, negative = cytotoxic",Potency
C[C@@H]1CN([C@@H](C)CO)C(=O)CCCn2cc(nn2)CO[C@H]1CN(C)C(=O)Oc1ccc2ccccc2c1,inactive: 23.7%,–
CCC(=NCc1cc(OC)cc(OC)c1)c1c(O)n(C)c(=O)n(C)c1=O,–,"inconclusive: 29.1 µM [cytotoxic, single point]"
CC(=O)c1cn(Cc2ccccc2C#N)c2ccccc12,–,"inconclusive: 4.61 µM [cytotoxic, full curve, poor fit]"
O=C1CC[C@@]2(O)[C@H]3Cc4ccc(O)c5c4[C@@]2(CCN3CC2CC2)[C@H]1O5,inactive: 0%,–
CC(=O)OC1C2(CC3N4C(=O)C5(CO)SSC4(CC31O)C(=O)N5C)OC(C)C(C)(C)C2=O (configuration not stated),–,"inconclusive: 1.16 µM [cytotoxic, full curve, poor fit]"
Cc1ccnc(NC(=O)CCCc2ccc(N(CCCl)CCCl)cc2)n1,–,"inconclusive: 20.6 µM [cytotoxic, single point]"
CNCC(O)c1cc(OCc2ccccc2)c(OCc2ccccc2)cc1F (configuration not stated),–,"inconclusive: 29.1 µM [cytotoxic, single point]"
O=c1[nH]c2ccccc2n1C1CCN(C(CCc2ccccc2)c2nnnn2Cc2ccccc2)CC1 (configuration not stated),–,"inconclusive: 29.1 µM [cytotoxic, single point]"
O=c1[nH]/c(=C\c2ccc(N(CCCl)CCCl)cc2)c(=O)[nH]/c1=C\c1ccc(N(CCCl)CCCl)cc1,–,"inconclusive: 13 µM [rising, partial curve, poor fit]"
COC(=O)C1=C(c2cc3ccccc3s2)C[C@@H]2CC[C@H]1N2C(=O)NCc1ccc(C(F)(F)F)cc1,–,"inconclusive: 29.1 µM [cytotoxic, single point]"
CN1CCN(C(=O)O[C@H]2c3nccnc3C(=O)N2c2ccc(Cl)cn2)CC1,inactive: 12%,–
c1cncc(C2Nc3cccc4cccc(c34)N2)c1,–,"inconclusive: 1.64 µM [rising, full curve, poor fit]"
CC(=O)O[C@H]1[C@H]2O[C@]23[C@@H]2CC[C@]4(O)C[C@@H](O)CC[C@]4(C)C2CC[C@]3(C)[C@H]1c1ccc(=O)oc1 (some centres not stated),–,"inconclusive: 0.0073 µM [cytotoxic, full curve, poor fit]"
CC(=O)O[C@H]1C[C@@H]2OC3C=C(C)CCC3(C)[C@@]1(C)[C@@]21CO1 (some centres not stated),–,active: 2.31 µM
CC(=O)C1CCC2C3C(N4CC4)CC4=CC(=O)CCC4(C)C3CCC12C (configuration not stated),–,"inconclusive: 23.1 µM [cytotoxic, single point]"
NC(=O)c1c(Br)n(C2OC(CO)C(O)C2O)c2ncnc(N)c12 (configuration not stated),–,active: 4.11 µM
Cc1ccc(N2C(=O)NC(=O)/C(=C\C=C\c3ccco3)C2=O)cc1,–,"inconclusive: 29.1 µM [cytotoxic, single point]"
CCOC(=O)[C@]12Cc3ccsc3[C@H]1N(Cc1ccccc1)C(=O)c1ccccc12,–,"inconclusive: 23.1 µM [cytotoxic, partial curve] and inconclusive: 32.6 µM [cytotoxic, single point]"
Cc1ccc(-c2nc3ccccc3c(=O)n2-c2cccc(O)c2)cc1,inactive: -10.5%,–
O=C1OCc2cc(N=Nc3c(O)[nH]c(=O)[nH]c3=O)ccc21,inactive: -2.1%,–
O=C(Nc1ccc(F)cc1)OC1CN2CCC1CC2 (configuration not stated),inactive: -8.01%,–

Compound,"activity change, negative = cytotoxic",Potency
COc1cccc(O)c1CN1CCCC(C(=O)c2sccc2C)C1 (configuration not stated),inactive: -0.241%,–
c1ccc2c(c1)CSc1ccccc1C2C1=NCCN1 (configuration not stated),–,"inconclusive: 29.1 µM [cytotoxic, single point]"
COC(=O)C1=C(c2ccc(F)cc2OCc2ccccc2)C[C@@H]2CC[C@H]1N2C(=O)N1CCC(C)CC1,–,"inconclusive: 23.1 µM [cytotoxic, single point]"
COc1ccc(C(=O)C2CCCN(Cc3ccon3)C2)cc1OC (configuration not stated),inactive: -6.33%,–
CCCCn1c(O)c(C(C)=NCc2cc(OC)cc(OC)c2)c(=O)[nH]c1=O,inactive: 6.19%,–
CCc1ccc(-n2nc(C)c3c2NC(=O)CSC3c2ccc(OC)cc2OC)cc1 (configuration not stated),–,"inconclusive: 20.6 µM [cytotoxic, partial curve, poor fit]"
CN[C@@H](C)[C@H](O)c1ccccc1,inconclusive: 41.7%,–
CCC(C(=O)Nc1ccccc1F)N1C(=O)CN=C(c2ccccc2)c2ccccc21 (configuration not stated),–,"inconclusive: 20.6 µM [cytotoxic, single point]"
O=C(c1ccco1)c1cn(Cc2ccc(Cl)cc2)c2ccccc12,–,"inconclusive: 29.1 µM [cytotoxic, single point]"
Cc1cc(C)c2c(ccc3cccc[n+]32)c1,–,"inconclusive: 16.4 µM [cytotoxic, partial curve, poor fit]"
NC(=Nc1ccccc1)NN=Cc1c[nH]c2ccccc12,–,"inconclusive: 0.731 µM [cytotoxic, full curve, poor fit]"
O=C1NC(=O)N(c2ccccc2)C(=O)/C1=C/c1coc2ccc(O)cc2c1=O,inactive: 4.98%,–
CCOP(=O)(Nc1ccc2c(c1)C(=NNC(N)=S)c1ccccc1-2)OCC,–,"inconclusive: 20.6 µM [cytotoxic, partial curve, poor fit]"
O=C(Nc1nc(-c2ccccc2)c(-c2ccccc2)s1)c1ccc(S(=O)(=O)N(CCCl)CCCl)cc1,inactive: -23.6%,–
COc1cc(CN=C(C)c2c(O)n(C)c(=O)n(C)c2=O)cc(OC)c1,–,"inconclusive: 16.4 µM [cytotoxic, partial curve, poor fit]"
CC(O)C1C=CC=CC(=O)OC2CC3OC4C5OC5(C)C(O)CC4(COC(=O)C(O)C(C)CCO1)C2(C)C31CO1 (configuration not stated),–,active: 0.206 µM
COc1ccc(O)c2c(=O)c3c(OC)cc4c(c3oc12)C1C=COC1O4 (configuration not stated),–,"inconclusive: 3.26 µM [cytotoxic, partial curve]"
Nc1cc(Cl)c2nonc2c1[N+](=O)[O-],–,active: 16.4 µM
CCOC(=O)C1(c2ccccc2)CCN(CC(=O)Nc2cccc3ccccc23)CC1,inactive: -0.339%,–
C[C@H]1CC[C@@]2(C)[C@@H](CC[C@@H]3[C@@H]2CC[C@]2(C)[C@@H](O)CC[C@@H]32)C1,inactive: 2.76%,–
Cc1cccc(-n2c(/C=C/c3ccccn3)nc3ccccc3c2=O)c1,–,"inconclusive: 29.1 µM [cytotoxic, single point]"
